Measurements reported in PubChem BioAssay AID1259275 (Sanger Institute, 2017).
Shown is an unselected part of 794 reagents tested. 13 of them (1.6%) were called active. 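Calls mark knock-downs lethal by themselves, not drug synergy; drugs went in a day after transfection, with DMSO as vehicle.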 Entries without a mark were called inactive. Not all columns of the deposit are shown. No sequences are given here. Not given: the amount of reagent, the time to read-out.

- Aim: 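Kinase and colorectal cancer genes needed for cancer cell survival, with or without drugs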 (primary screen)
- Cell system: COLO320HSR human colorectal cancer cells
- Knock-down reagent: siRNA pool against human genes
- Conditions: anchor drug added one day after transfection: BYL719 at 1 µM, cetuximab at 5 µg/ml or trametinib at 10 nM; DMSO as vehicle arm
- Detection: 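Viability averaged over replicates as a fraction of the non-targeting pool, a robust z-score for knock-down alone, and synergy scores with BYL719 (1 µM), cetuximab (5 µg/ml) or trametinib (10 nM)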
- Reading the numbers: robust z-score, siRNA alone: higher = more viable cells; strongly negative means essential
- Rule for the call: 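a gene is called essential when its robust z-score without drug falls below -3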
- Meaning of the calls: active = essential (siRNA alone); inactive = no change (siRNA alone)

What is on record for FN3K [SID56479098]?
robust z-score, siRNA alone: 0.482

What is on record for PRKCH [SID56478829]?
robust z-score, siRNA alone: 0.726

With ERN2 [SID135620900], what was measured?
robust z-score, siRNA alone: 0.199

With DCLK3 [SID152149137], what was measured?
robust z-score, siRNA alone: 0.55

For FGFR1 [SID135620619], what was measured?
robust z-score, siRNA alone: 0.726

What is on record for FYN [SID135620621]?
robust z-score, siRNA alone: 0.726

For MAP3K11 [SID152156459], what was measured?
robust z-score, siRNA alone: 0.242

For TRIB3 [SID56478723], what was measured?
robust z-score, siRNA alone: 0.155

For TAOK2 [SID57288958], how do the results read?
robust z-score, siRNA alone: 0.364

Which result is listed for STK35 [SID135620978]?
robust z-score, siRNA alone: 0.726

With CDKN1C [SID56478604], what does the deposit list?
robust z-score, siRNA alone: 0.726

What did the screen give for MAGI1 [SID152150294]?
robust z-score, siRNA alone: -1.88

Which result is listed for MLKL [SID56479010]?
robust z-score, siRNA alone: 0.169

Which result is listed for APC [SID152153239]?
robust z-score, siRNA alone: 0.322

What is on record for SOX9 [SID134325081]?
robust z-score, siRNA alone: 0.363

What is on record for BMPR1A [SID135620910]?
robust z-score, siRNA alone: 0.726

For CDK11B [SID152152958], what was measured?
robust z-score, siRNA alone: -0.537

Taken from above:
FYN [SID135620621], robust z-score, siRNA alone: 0.726
For “robust z-score, siRNA alone”, SOX9 [SID134325081] reads 0.363
Under “robust z-score, siRNA alone”, FGFR1 [SID135620619] reads 0.726

More entries follow.
How did the screen score TLK1 [SID56478782]?
robust z-score, siRNA alone: 0.553

With STK31 [SID135620977], what was measured?
robust z-score, siRNA alone: -0.838

Which result is listed for ACO1 [SID134314687]?
robust z-score, siRNA alone: -2.79

What did the screen give for CDK7 [SID152150057]?
robust z-score, siRNA alone: 0.726

With CALM3 [SID152148336], what does the deposit list?
robust z-score, siRNA alone: -0.617

What did the screen give for GSK3B [SID56478468]?
robust z-score, siRNA alone: -0.765

For SRPK2 [SID56478890], how do the results read?
robust z-score, siRNA alone: 0.407

For ALPK2 [SID152151764], what does the deposit list?
robust z-score, siRNA alone: 0.484

With MAP2K3 [SID152148115], how do the results read?
robust z-score, siRNA alone: -0.0843

How did the screen score ITSN1 [SID135621555]?
robust z-score, siRNA alone: 0.0112

For EPHB3 [SID56478503], how do the results read?
robust z-score, siRNA alone: -0.47
